No constants are given. Whether binding was seen depends on the method and setting. In cells and extracts the contact can be indirect. Some entries that bind do so weakly or less than the wild type.
Molecular target: vascular endothelial growth factor receptor 2 (VEGFR2) (human) (UniProt P35968)
Experiment: confocal co-localisation and co-immunoprecipitation in HUVECs; also co-immunoprecipitation from transfected HEK-293T cells

Amino acid sequences for entries named in this document (tags omitted). Residues count along the entry.
UniProt P35968, residues 20-1356: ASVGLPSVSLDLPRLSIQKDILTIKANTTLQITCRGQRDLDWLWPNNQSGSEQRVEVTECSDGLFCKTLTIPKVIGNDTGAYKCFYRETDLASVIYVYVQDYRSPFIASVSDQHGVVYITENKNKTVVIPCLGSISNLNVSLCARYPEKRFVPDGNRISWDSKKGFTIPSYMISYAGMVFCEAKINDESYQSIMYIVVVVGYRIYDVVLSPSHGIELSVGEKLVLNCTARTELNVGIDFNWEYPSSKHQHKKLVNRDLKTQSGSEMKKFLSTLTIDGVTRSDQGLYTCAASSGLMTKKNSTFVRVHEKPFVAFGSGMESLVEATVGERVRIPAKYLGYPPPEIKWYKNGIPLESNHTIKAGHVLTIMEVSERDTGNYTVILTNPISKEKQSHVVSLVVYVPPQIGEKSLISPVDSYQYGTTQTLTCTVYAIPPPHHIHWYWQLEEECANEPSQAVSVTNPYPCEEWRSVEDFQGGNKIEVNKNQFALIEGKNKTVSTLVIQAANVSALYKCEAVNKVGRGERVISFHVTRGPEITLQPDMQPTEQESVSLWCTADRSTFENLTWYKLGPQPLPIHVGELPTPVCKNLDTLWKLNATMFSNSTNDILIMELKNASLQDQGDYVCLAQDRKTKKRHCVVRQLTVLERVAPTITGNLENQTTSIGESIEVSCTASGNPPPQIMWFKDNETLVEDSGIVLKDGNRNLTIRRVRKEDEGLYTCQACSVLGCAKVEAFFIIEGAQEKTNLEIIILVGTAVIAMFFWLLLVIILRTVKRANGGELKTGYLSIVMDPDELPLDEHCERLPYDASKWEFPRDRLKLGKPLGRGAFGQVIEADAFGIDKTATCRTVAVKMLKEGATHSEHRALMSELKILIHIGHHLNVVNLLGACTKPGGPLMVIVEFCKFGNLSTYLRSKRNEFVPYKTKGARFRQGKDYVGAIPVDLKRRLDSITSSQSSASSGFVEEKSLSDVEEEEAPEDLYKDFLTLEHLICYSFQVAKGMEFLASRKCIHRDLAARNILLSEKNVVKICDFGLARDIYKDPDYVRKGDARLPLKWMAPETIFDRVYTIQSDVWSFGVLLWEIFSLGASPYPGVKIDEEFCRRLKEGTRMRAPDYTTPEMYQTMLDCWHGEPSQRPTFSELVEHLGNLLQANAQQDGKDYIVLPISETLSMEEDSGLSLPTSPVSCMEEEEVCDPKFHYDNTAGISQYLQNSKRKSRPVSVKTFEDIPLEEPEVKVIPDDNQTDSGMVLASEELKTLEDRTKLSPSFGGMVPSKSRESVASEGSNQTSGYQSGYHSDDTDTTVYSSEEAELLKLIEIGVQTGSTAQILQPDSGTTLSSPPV

binding: binds
B1: human SCUBE2 (Signal peptide-CUB-EGF domain-containing protein 2) (receptor)
chain: RAAGPQEDVDECAQGLDDCHADALCQNTPTSYKCSCKPGYQGEGRQCEDIDECGNELNGGCVHDCLNIPGNYRCTCFDGFMLAHDGHNCLDVDECLENNGGCQHTCVNVMGSYECCCKEGFFLSDNQHTCIHRSEEGLSCMNKDHGCSHICKEAPRGSVACECRPGFELAKNQRDCILTCNHGNGGCQHSCDDTADGPECSCHPQYKMHTDGRSCLEREDTVLEVTESNTTSVVDGDKRVKRRLLMETCAVNNGGCDRTCKDTSTGVHCSCPVGFTLQLDGKTCKDIDECQTRNGGCDHFCKNIVGSFDCGCKKGFKLLTDEKSCQDVDECSLDRTCDHSCINHPGTFACACNRGYTLYGFTHCGDTNECSINNGGCQQVCVNTVGSYECQCHPGYKLHWNKKDCVEVKGLLPTSVSPRVSLHCGKSGGGDGCFLRCHSGIHLSSGLQGAYSVTCGSSSPLRNKQQKSNDSAFGDVTTIRTSVTFKLNEGKCSLKNAELFPEGLRPALPEKHSSVKESFRYVNLTCSSGKQVPGAPGRPSTPKEMFITVEFELETNQKEVTASCDLSCIVKRTEKRLRKAIRTLRKAVHREQFHLQLSGMNLDVAKKPPRTSERQAESCGVGQGHAENQCVSCRAGTYYDGARERCILCPNGTFQNEEGQMTCEPCPRPGNSGALKTPEAWNMSECGGLCQPGEYSADGFAPCQLCALGTFQPEAGRTSCFPCGGGLATKHQGATSFQDCETRVQCSPGHFYNTTTHRCIRCPVGTYQPEFGKNNCVSCPGNTTTDFDGSTNITQCKNRRCGGELGDFTGYIESPNYPGNYPANTECTWTINPPPKRRILIVVPEIFLPIEDDCGDYLVMRKTSSSNSVTTYETCQTYERPIAFTSRSKKLWIQFKSNEGNSARGFQVPYVTYDEDYQELIEDIVRDGRLYASENHQEILKDKKLIKALFDVLAHPQNYFKYTAQESREMFPRSFIRLLRSKVSRFLRPYK
notes: Signal peptide a.a; 1-37 and mature protein a.a; also GST.SCUBE2-CUB); also called FLAG.SCUBE2-FL; FLAG-tagged SCUBE2

Source: patent US20190127454A1 (ACADEMIA SINICA, published 2019)
